Source: PMC12528448, “Resistance to CDK7 inhibitors directed by acquired mutation of a conserved residue in cancer cells” (The EMBO Journal, 2025)
Certain results were filed several times, with different values. This list holds those alone. The source may hold further records. Values that stand side by side differ, and nothing given here explains why; they may come from other doses, times, organisms or constructs than stated.

Key:
MCF7-CDK7-D97N cells = assay: Growth assay (SRB), MCF7 CDK7-D97N knock-in; conditions: MCF7 CDK7 D99N, 4 days, biological reps, listed as SY1365
[1] = system: PolII CTD Ser5 and CDK2 Thr160 phosphorylation in 22Rv1 cells; assay: Immunoblotting of CDK7 targets, 22Rv1; type: cell-based, human; conditions: 22Rv1, 50nM SY1365, Vehicle = 1.00
[2] = system: PolII CTD Ser5 and CDK2 Thr160 phosphorylation in 22Rv1-SamR cells; assay: Immunoblotting of CDK7 targets, 22Rv1-SamR; type: cell-based, human
MCF7 cells = assay: Growth assay (SRB), MCF7; conditions: biological reps, listed as SY1365

For CN(C)C/C=C/C(=O)Nc1ccc(C(=O)N[C@@]2(C)CCC[C@@H](Nc3ncc(Cl)c(-c4c[nH]c5ccccc45)n3)C2)nc1 [SY-1365], the “% Growth” value (MCF7-CDK7-D97N cells; Log10 Conc. (nM) 0.09) was 12.74, 2.52, 17.22, 21.23%, the “% Growth” value (MCF7-CDK7-D97N cells; Log10 Conc. (nM) -0.52) was 31.61, 15.96, 34.41, 34.30% and the “Relative Density P-Ser2” value [1] was 0.17 and 0.27. For the same molecule, the “Relative Density P-Ser2” value ([2]; 5nM SY1365, Vehicle = 1.00) was 0.73, 0.16, 0.23, the “Relative Density P-Ser2” value ([2]; 50nM SY1365, Vehicle = 1.00) was 0.35, 0.08, 0.17 and the “% Growth” value (MCF7 cells; Log10 Conc. (nM) 0.09, 4 days) was 20.98, 18.77, 40.32, 44.81%. The “% Growth” value (MCF7 cells; Log10 Conc. (nM) 0.69, 4 days) was 9.26, 3.41, 18.08, 20.14%.
